These are yes or no findings as the source states them, for the method shown. Binding seen in cells or lysates may run through a third protein.
B1: phosphoinositide-dependent protein kinase-1 (PDK1), endogenous in 293 T cells (protein, UniProt O15530 1-556)
chain: MARTTSQLYDAVPIQSSVVLCSCPSPSMVRTQTESSTPPGIPGGSRQGPAMDGTAAEPRPGAGSLQHAQPPPQPRKKRPEDFKFGKILGEGSFSTVVLARELATSREYAIKILEKRHIIKENKVPYVTRERDVMSRLDHPFFVKLYFTFQDDEKLYFGLSYAKNGELLKYIRKIGSFDETCTRFYTAEIVSALEYLHGKGIIHRDLKPENILLNEDMHIQITDFGTAKVLSPESKQARANSFVGTAQYVSPELLTEKSACKSSDLWALGCIIYQLVAGLPPFRAGNEYLIFQKIIKLEYDFPEKFFPKARDLVEKLLVLDATKRLGCEEMEGYGPLKAHPFFESVTWENLHQQTPPKLTAYLPAMSEDDEDCYGNYDNLLSQFGCMQVSSSSSSHSLSASDTGLPQRSGSNIEQYIHDLDSNSFELDLQFSEDEKRLLLEKQAGGNPWHQFVENNLILKMGPVDKRKGLFARRRQLLLTEGPHLYYVDPVNKVLKGEIPWSQELRPEAKNFKTFFVHTPNRTYYLMDPSGNAHKWCRKIQEVWRQRYQSHPDAAVQ
B2: phosphoinositide-dependent protein kinase-1 (PDK1), endogenous in Caco-2 cells (protein, UniProt O15530 1-556)
chain: B1 chain

What was measured:
[1] = molecular target: His-SopF (Salmonella effector SopF expressed from pcDNA3.1-SopF-6*His-T2A-GFP) (Salmonella enterica serovar Typhimurium); test: co-IP; 293 T cells transfected with empty vector or pcDNA3.1-SopF-6*His-T2A-GFP for 48 h; His-tagged SopF immunoprecipitated from cell lysates, blot for endogenous PDK1
[2] = molecular target: SopF:His translocated by S. Typhimurium (STM-ΔsopF/psopF:His) (Salmonella enterica serovar Typhimurium SL1344); test: co-IP; Caco-2 cells infected with STM-ΔsopF/pBAD or STM-ΔsopF/psopF:His at MOI 100 for 2 hpi and 24 hpi; His-Tag monoclonal antibody and protein A/G Plus-Agarose, 4°C, five washes with PBS; blot for endogenous PDK1

Binder	binding [1]	binding [2]
B1	no binding	–
B2	–	no binding

— article PMC9980482
